Measurements reported in paper PMC10499325.
No constants are given. Whether binding was seen depends on the method and setting. In cells and extracts the contact can be indirect.

Amino acid sequences for entries named in this document (tags omitted). A change or cut given only in a name is not applied to a line headed by its entry.
UniProt Q460N5: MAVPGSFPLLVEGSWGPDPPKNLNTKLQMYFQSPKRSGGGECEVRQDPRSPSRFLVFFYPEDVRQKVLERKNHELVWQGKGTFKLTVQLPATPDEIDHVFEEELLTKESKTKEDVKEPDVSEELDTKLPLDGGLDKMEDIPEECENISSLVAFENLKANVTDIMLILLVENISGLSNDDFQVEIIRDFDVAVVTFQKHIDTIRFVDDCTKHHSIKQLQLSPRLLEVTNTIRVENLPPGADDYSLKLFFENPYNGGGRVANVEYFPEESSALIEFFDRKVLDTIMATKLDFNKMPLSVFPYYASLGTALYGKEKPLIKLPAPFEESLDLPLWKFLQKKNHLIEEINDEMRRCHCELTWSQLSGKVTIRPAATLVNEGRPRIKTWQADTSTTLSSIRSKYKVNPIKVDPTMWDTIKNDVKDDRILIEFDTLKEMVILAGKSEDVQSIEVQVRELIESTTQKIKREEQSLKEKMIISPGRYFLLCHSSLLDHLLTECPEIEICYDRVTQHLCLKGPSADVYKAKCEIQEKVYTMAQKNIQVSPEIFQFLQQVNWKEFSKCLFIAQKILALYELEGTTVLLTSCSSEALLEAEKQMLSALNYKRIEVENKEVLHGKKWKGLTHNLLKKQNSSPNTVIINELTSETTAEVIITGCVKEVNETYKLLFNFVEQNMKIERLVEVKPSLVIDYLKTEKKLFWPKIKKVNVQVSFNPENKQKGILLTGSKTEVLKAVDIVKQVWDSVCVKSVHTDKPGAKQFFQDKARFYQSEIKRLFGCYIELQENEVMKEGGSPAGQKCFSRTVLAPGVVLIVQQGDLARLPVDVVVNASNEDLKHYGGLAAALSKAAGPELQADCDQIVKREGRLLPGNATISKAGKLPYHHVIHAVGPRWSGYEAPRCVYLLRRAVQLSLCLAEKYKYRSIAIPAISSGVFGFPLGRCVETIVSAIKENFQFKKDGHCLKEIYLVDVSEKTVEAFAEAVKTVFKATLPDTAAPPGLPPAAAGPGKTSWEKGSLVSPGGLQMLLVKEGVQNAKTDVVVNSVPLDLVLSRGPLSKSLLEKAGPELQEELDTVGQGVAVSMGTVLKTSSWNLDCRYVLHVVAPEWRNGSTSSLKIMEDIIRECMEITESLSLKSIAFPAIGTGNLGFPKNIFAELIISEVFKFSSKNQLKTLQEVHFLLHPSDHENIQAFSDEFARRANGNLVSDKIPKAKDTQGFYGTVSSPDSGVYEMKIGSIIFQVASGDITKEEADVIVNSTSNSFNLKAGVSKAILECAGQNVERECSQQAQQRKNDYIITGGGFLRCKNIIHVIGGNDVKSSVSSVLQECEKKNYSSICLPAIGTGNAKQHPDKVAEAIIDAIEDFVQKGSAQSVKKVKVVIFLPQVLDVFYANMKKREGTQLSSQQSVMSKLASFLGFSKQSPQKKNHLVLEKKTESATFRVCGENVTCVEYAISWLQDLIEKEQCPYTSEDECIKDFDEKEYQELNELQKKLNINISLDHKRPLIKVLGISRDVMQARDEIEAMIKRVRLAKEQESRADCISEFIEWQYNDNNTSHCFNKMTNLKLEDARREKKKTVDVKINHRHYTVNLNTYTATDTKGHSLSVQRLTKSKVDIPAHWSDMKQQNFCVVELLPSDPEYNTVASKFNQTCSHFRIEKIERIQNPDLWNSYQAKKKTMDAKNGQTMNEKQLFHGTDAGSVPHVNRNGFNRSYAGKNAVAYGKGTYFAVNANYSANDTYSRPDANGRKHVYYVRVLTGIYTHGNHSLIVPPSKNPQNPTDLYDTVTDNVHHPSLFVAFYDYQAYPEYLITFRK
UniProt Q92769: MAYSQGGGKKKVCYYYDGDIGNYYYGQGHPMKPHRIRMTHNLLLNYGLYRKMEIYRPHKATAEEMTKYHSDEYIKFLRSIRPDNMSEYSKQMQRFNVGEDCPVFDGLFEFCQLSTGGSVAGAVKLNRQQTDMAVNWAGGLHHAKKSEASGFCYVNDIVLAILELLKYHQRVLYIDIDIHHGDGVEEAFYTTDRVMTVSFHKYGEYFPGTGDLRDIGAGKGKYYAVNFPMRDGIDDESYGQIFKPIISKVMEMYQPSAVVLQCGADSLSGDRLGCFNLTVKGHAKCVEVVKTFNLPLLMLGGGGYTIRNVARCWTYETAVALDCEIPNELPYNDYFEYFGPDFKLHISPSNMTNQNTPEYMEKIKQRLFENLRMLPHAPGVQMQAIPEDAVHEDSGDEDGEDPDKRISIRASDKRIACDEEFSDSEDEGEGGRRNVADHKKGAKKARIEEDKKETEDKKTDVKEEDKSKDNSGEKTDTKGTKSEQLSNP

Experiments:
[1] = target: YFP-tagged full-length PARP14 G832E MD1 mutant (human) (UniProt Q460N5); test: co-IP; GFP-Trap magnetic agarose beads on lysates of 293T cells transfected with YFP-PARP14 plasmids; Triton X-100 lysis buffer (50 mM tris-HCl pH 8.0, 100 mM NaCl, 1% Triton X-100) with 5 mM MgCl2, Benzonase, olaparib and PARGi; 2 hours at 4°C; five washes with 800 mM NaCl buffer; Western blotting of the partners
[2] = target: YFP-tagged full-length PARP14 wild type (human) (UniProt Q460N5); test: as above

binding [1]: no binding
binding [2]: no binding
Substance: HDAC2 (from UniProt Q92769 1-488)
